Test results from the supplement of paper PMC3334620.
Over roughly 33,000 sequences, “E-score (-0.5 to 0.5)” has its median near -8e-05; the highest 2% begin near 0.23. The list shows a part of the results.

The sequences below were run against T1, Nrg2 (UniProt P38082) (assay: PBM E-score (8-mer binding enrichment) (E-score (-0.5 to 0.5)); higher = stronger / more preferred TF binding). Conditions: protein concentration: 100 nM; construct: GST-full length.
T1 sequence: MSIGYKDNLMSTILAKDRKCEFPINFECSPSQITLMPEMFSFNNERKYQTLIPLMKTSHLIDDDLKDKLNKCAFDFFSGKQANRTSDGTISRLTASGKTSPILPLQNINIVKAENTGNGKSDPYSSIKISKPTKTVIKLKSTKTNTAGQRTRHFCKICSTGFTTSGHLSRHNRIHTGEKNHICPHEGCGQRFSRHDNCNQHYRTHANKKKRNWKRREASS
Procedure, shortened: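 Each ungapped eight-base word and its reverse complement, pooled, received an E-score from the Universal PBM Analysis Suite. Underlying scans, normalised with masliner, recorded fluorescent anti-GST bound to GST-tagged yeast transcription factors. These were applied at about 100-200 nM to universal all-10-mer Agilent arrays double-stranded by primer extension.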

Sequence	PBM E-score
GATCCTCC	-0.235
GGGATTGA	0.0443
CACGTGTC	-0.108
GGGCCCAA	0.244
CGGGGGGC	-0.4
GTGCCAGA	-0.111
GGTATGCA	-0.082
CGGTATAC	-0.0175
AGAGGCCT	-0.0985
AAGGTTGC	0.0635
ATCGATGG	-0.00808
CGCTTGGA	0.0295
CAGTATGC	0.0397
AGTGTAAA	0.0642
TATCTCGA	0.0972
GGCTCGAC	-0.0112
GCCTCACC	-0.0884
ACACTCCC	-0.0932
CATTTTCA	0.193
GGTCCGTA	0.0401
CAGGAATA	0.00101
ATTTAATC	0.203
TTCCGAAA	-0.0432
CCAAGTTA	-0.0706
TAAGTACA	-0.00245

Sequence	PBM E-score
ATCATAAA	0.123
GGGTCCAA	0.322
GGAATAAA	0.0515
CGGACCTA	0.0604
GGATGGAA	-0.0686
AATGGCCT	0.0811
AGGAGCCT	-0.331
CACTGGAG	-0.0971
ACAGCGTC	0.0812
ATCAGCAG	0.103
CGGACGCC	-0.238
GCTTGGGA	0.00089
ACATCCGG	-0.0147
CTGGCTTA	-0.124
GGTTCGCA	-0.137
AATTTTAA	0.052
ATTAAATG	0.148
GCGGTGCA	0.0246
ATAGCCAA	0.0578
AATGAGTA	0.139
GGTAAAGA	-0.0308
CTGTACCC	-0.108
CGTCTGAA	-0.151
ACCTTCCG	0.0331
AAATGCCC	-0.0928

Sequence	PBM E-score
ACGATTTG	0.128
CTATTAGC	0.129
AACTGGGT	0.0205
ATCATTTC	0.242
ATACAACG	0.0553
AGTACAAG	0.0113
AACACCAA	0.128
ACAGCACG	0.0899
CGCGTCGA	0.16
AAAGGCAC	-0.0414
ACGTACGT	-0.252
ACTACTCA	0.103
CGGCCTAG	-0.129
CTAAAACC	0.102
ACCGAGCG	-0.101
ACATACGA	0.0374
TCGTTCCA	-0.231
ATGTTTGC	-0.0408
ATTAAAGA	0.157
ACATCGTA	0.025
AGTACTGG	-0.128
GTGATGGA	-0.0813
TCCGTGCA	0.134
TAGTCCAA	-0.0982
AGGCCTGG	-0.167

Taken from above (four entries):
Sequence	PBM E-score
AGTACTGG	-0.128
GTGATGGA	-0.0813
TCCGTGCA	0.134
TAGTCCAA	-0.0982

Next entries.

Sequence	PBM E-score
ACACAGCG	0.179
CGTTCCAC	-0.187
ATAGACTC	-0.26
CAACCTTA	0.0819
CAGACTAC	-0.0891
CTTAATTA	0.146
CAAGCCAA	-0.00536
GAGTAGCA	0.0981
AGTCCATC	-0.151
TATCGGAA	0.0162
CTAGCGAC	-0.0336
AATCCCAG	-0.0069
GTGCCCTA	-0.218
GTCGCTTA	0.0518
CGTCGCGA	0.143
ACCTGGCT	-0.102
AACATGAC	0.158
TCGGCTCA	-0.134
GCCATGGA	0.0938
GAGTACGA	0.0575
GCAGTATA	0.139
GGTCGGTA	-0.00181
AGACTGAT	-0.0162
CACTCTGC	0.0789
CGGGGGCC	-0.325

Single entries from the list:
CGGCCTAG – PBM E-score: -0.129
ATCATAAA – PBM E-score: 0.123
TCGTTCCA – PBM E-score: -0.231
ATGTTTGC – PBM E-score: -0.0408
ACAGCACG – PBM E-score: 0.0899
AACACCAA – PBM E-score: 0.128
ATCGATGG – PBM E-score: -0.00808

(continued)

Sequence	PBM E-score
GTCCGTGA	-0.0209
CGTCAAGC	-0.118
CAAGAAGG	-0.0466
AATGTTCA	0.145
GTGGACCA	0.0574
CGTTTGTC	-0.0352
GATTGCCC	-0.0761
ACTGCTTC	-0.107
CTAACCAC	-0.0626
AGGACTAG	0.0505
GATGCACC	-0.0073
TTCAAGAA	0.0685
TCCTAGCA	-0.201
CCGAATGC	0.111
GGTTGTAA	0.0146
CGGGCCGA	-0.182
GCGGGGAA	0.101
GAAGGCCC	-0.216
CCTTCCCG	-0.122
AGAAAAAG	-0.00443
CTGCCAAG	-0.221
AGTCAGGA	0.0134
TCGAGAAA	-0.0546
AGGGAAGC	-0.0318
ACATAGCA	-0.00783

Sequence	PBM E-score
TAGGAATA	-0.0845
CTATTTAA	0.0579
ACTGCTCG	0.0889
AGTCTGAG	-0.319
ATCGCGGG	0.213
AGTTAAGG	0.0234
ATTTTATG	0.0312
CTACGTGC	-0.0576
AGACATAA	0.021
GCAGAAGA	0.0164
CCAGTACG	-0.131
CCGTATAG	-0.0765
GTCTTTAA	-0.0888
GAGCAGCC	-0.0249
GTATGTCA	0.0885
AGCCGTAA	-0.0562
GCGCACCA	0.109
CCTGCTAA	-0.0759
TCTAAACA	-0.15
ATTCATCA	0.181
ACAGCCAG	0.104
CGATGGAA	-0.0846
AACACTGG	0.0606
ACTCTTCC	-0.212
CGGAAGGC	-0.319

Sequence	PBM E-score
ACGCGGCC	-0.153
GAGTAGAA	-0.0201
GAAGACCA	-0.0291
ATAAGAGC	0.0649
AGGTAGTA	0.18
ACGCAGCG	-0.0861
CAGCCCGA	-0.0629
AGTCATTC	-0.0596
ATGCGACG	-0.0474
AGGAACAC	0.131
CTTACGAA	0.00101
TACTGGCA	-0.131
GAGGGCAA	0.113
AACCTACA	0.104
TACTCGGA	0.157
CACCTAGA	-0.0936
AAGAGGAT	-0.211
ACAAGATC	-0.117
CTATGCAG	-0.0253
AAAATTGT	0.113
TCCCTGCA	0.25
GACGTGCC	0.0221
GTTGAGAA	-0.00227
ATTAACGG	0.0653
ATGGCCTA	0.00552

Sequence	PBM E-score
AGGGGGTC	-0.163
GACCAATC	0.0952
GTGTCAGA	-0.107
ACTGCTCT	0.00123
GTACTGCA	-0.0299
CCCGGGAG	-0.0389
AATAGTGC	0.077
CAGTACAC	0.0233
CTACATCC	-0.0578
CATAAGTC	0.0683
CCCCAACC	-0.00576
GGACGTCC	0.0882
GAAATGCC	-0.00619
AGAAAGAC	0.115
CAGAACAG	0.0915
GATTTCGA	0.00717
AGCGGTGA	-0.167
AGTAATAA	0.12
ACTAAGAG	-0.0703
CGCATGCA	0.246
AGGCCGTA	0.0631
TATTTAAA	0.221
GTAAGACA	-0.0374
AGTTCCAA	-0.0923
AATTGCAC	0.144

Sequence	PBM E-score
CGTACTGC	-0.00898
GGTATTAC	0.169
GGGACCGA	0.0973
AAACAAGG	0.0234
AATACCCA	0.192
AAAGCGAA	0.155
ATCCATTC	0.109
CAGGGTTC	0.387
CATTGGGG	-0.108
AGTCTAGG	-0.299
AGGGGCAA	0.0442
AGTGTTGA	0.125
AAGTGATG	-0.0026
GCACCGAA	-0.0118
AATTCGAG	-0.0416
AGAAAAAA	0.0465
ATCCTTGG	0.0934
CCATTTAA	-0.00324
CACTCAGC	0.0295
AACTCGTC	0.0348
ACTTCTCG	0.0762
AAGACTGT	-0.21
AAGTTGAG	0.00922
GGATTCGA	-0.0125
ACGAAACC	0.207

Sequence	PBM E-score
CAGGTCGA	0.159
CGCGATGC	-0.18
AGTTCCCA	0.122
ACAGGTGA	0.207
AGGGTCCG	0.374
CATATCGG	-0.00381
CTTCTCCA	-0.0386
CAAATATA	0.03
TGTGTCAA	0.0121
CAGGACGC	-0.095
AGCGGTAG	-0.196
CAGGGGGC	0.00087
GCCCGCGA	0.101
ACCTGTAT	0.0302
AAAATCGG	0.00405
GTCCTGGA	-0.261
GACGATGA	-0.104
CCGCGTTC	0.0737
CTGTCTAC	-0.0488
GACGTTTA	-0.0222
GAAAAATC	0.099
AGGATGTA	0.133
ACTGGCCG	-0.204
CGTAGAAC	-0.179
ATAGAAGC	0.0847

Sequence	PBM E-score
ACAATCTC	0.0737
AACTCACC	0.14
CAGTACCG	-0.107
TAAGCAAA	0.0437
GTTTGAGA	-0.0452
GCAACGGA	0.162
CAGATGAC	-0.134
ACAACAGT	0.00778
AACGGCAT	0.23
ACTCAAAC	0.0952
AACAATTG	0.0115
GGGGGGTA	-0.443
GACTTACC	-0.167
CTCAGCGC	0.0699
GGCCCCCA	-0.432
ACGACCCC	-0.00055
CTACTAGC	0.137
GATGCTGA	-0.186
ACGGAAAG	0.0778
GACGCTAC	-0.0645
ACTAACCT	0.198
TGTCACAA	0.0819
CTATACCC	0.0295
CTTACCAA	0.069
GCCTGTCC	-0.0509

Sequence	PBM E-score
CCAACACG	0.0552
GTACCGCA	0.115
AATGAATA	0.0473
CGGACGAG	-0.0232
ATCTCCGA	0.125
CGCACAAC	0.156
TCTTCACA	0.0559
ACTGAGTC	0.0506
GTGATATA	0.0797
CACCTAGC	-0.162
ATGAAGCC	0.0979
AGGAATTG	0.131
GGCCGCGA	-0.121
CAGCTGAA	0.0625
ATCCCGGG	0.00544
CCGAGTAG	0.134
AGTACCCA	-0.0348
TCCTTAAA	0.00106
CTGCTCCC	-0.0408
ATAAAGTA	0.18
AAAAGCTA	-0.0438
CACCCTCA	-0.0306
ACGCCCGG	-0.136
GGGTTTTA	0.207
CTTTACTC	0.144

Sequence	PBM E-score
CGGGGCTA	-0.204
AAGTCTTG	-0.145
GGGCGCGA	0.15
CTCCAAGC	0.011
AGAGGAAG	-0.0269
CATACATG	0.056
ACTCGCAA	0.028
ATGTTACG	-0.0968
CAGCCTCC	-0.333
CCCGCGGC	0.109
AAATCACG	0.0849
CCCTCAGC	-0.0293
AGCCCCGG	-0.0519
GGCCTCAA	0.105
GATCAACA	-0.0582
CGTGAGAC	0.0534
CACGAGCA	-0.145
AAACCTGG	-0.0117
ATCCGCGC	0.116
TCCGCAGA	0.0447
AATCTCGG	0.0273
GACCTCTA	-0.0846
CAAGTAGG	-0.0821
AAACACGC	0.071
GTCATAAA	0.0411

Sequence	PBM E-score
ACGTCGCG	-0.0773
GACGATCA	-0.0906
AACATCGC	0.0173
GCTTTGGA	0.12
AATTGGAT	0.132
CAACTCCA	0.0711
TAATAAGA	0.0444
CTTATTCA	-0.00255
ATTAAAAT	0.174
ATCCCTGG	0.302
CGGGACTC	-0.143
GACGTGGC	-0.099
CGGAGTAA	-0.018
AATAACTA	0.0916
CGTCGAGA	0.0768
AGAAATAT	0.126
AAAACATT	-0.0265
CCATTAAG	0.0243
GCAATGAC	-0.0908
